# Data as given in publication PMC11557929, “Environment-sensitive turn-on fluorescent probe enables live cell imaging of myeloperoxidase activity during NETosis” (Communications Chemistry, 2024).
# Assays:
# MPO in hPMN = experiment: Colocalization with anti-MPO antibody in fixed hPMN; type: cell-based, human
# [1] = tested on: MPO in HL-60-derived granulocytes (dHL-60); experiment: Colocalization with anti-MPO antibody in fixed dHL-60 cells; type: cell-based, human
structure (smiles),measurement,setting,value
CN(C)c1ccc2c3c(cccc13)C(=O)N(CCn1c(=S)[nH]c(=O)c3[nH]cnc31)C2=O [Probe 1],Mander's split coefficient M1,MPO in hPMN,0.66
same,Mander's split coefficient M2,MPO in hPMN,0.74
same,Pearson's correlation coefficient (PCC),"MPO in hPMN; PMA, 1 µM probe, 2.6 µm Z-stack",0.74
same,Van Steensel's CCF,"MPO in hPMN; PMA, 1 µM probe, peak at dx 1, 2.6 µm Z-stack",0.74
same,Mander's split coefficient M1,[1]; fixed dHL-60,0.79
same,Mander's split coefficient M2,[1]; fixed dHL-60,0.75
same,Pearson's correlation coefficient (PCC),"[1]; fixed dHL-60, PMA, 1 µM probe, 2.6 µm Z-stack",0.77
same,Van Steensel's CCF,"[1]; fixed dHL-60, PMA, 1 µM probe, peak at dx 0, 2.6 µm Z-stack",0.77
